From article PMC7819943, “Rice protein-binding microarrays: a tool to detect cis-acting elements near promoter regions in rice” come the findings set out here.

Protein sequences, listed by entry. Tags and fused reporters are not part of them.
UniProt Q0JBA9, entry or part of it: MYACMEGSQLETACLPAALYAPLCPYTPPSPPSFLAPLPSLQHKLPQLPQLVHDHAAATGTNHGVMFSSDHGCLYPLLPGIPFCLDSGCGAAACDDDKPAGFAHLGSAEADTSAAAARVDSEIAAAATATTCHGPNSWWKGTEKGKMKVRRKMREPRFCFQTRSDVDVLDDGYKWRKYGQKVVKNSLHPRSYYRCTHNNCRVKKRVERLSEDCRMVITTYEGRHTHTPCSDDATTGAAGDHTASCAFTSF

This is one part of the list.

The experiment deals with OsWRKY34 (Oryza sativa, UniProt Q0JBA9 1-250). In words: protein-binding microarray (RPBM); PBS, 2% BSA, 51.3 ng/ul salmon testes DNA, 50 uM zinc acetate, 200 nM TF, 25 C, 1 h; high values mean tight binding. As to conditions: protein: recombinant; tags: N-terminal polyhistidine and DsRed monomer fusion (pET32a); label: CyDye5-dUTP incorporated in the synthesized complementary strand; 3' TTTTT single-stranded linker to array surface; dsDNA, one strand shown. The procedure, abridged: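 Binding signal here means per-feature fluorescence intensity in arbitrary units. The values were read on an Axon 4000B scanner after a custom Agilent array, double-stranded by primer extension with Cy5-dUTP, was incubated with 200 nM protein at 25 °C for 1 h in PBS with 2% BSA, salmon testes DNA and 50 µM zinc acetate, then washed. The proteins were transcription factors with an N-terminal polyhistidine tag and DsRed, expressed in E. coli BL21-CodonPlus and purified on Ni–NTA.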
Consider “CAAGGCCATACAACTACTATTCCTCACATATTCCCCAAACCGGAGTCACCTAGTGCAG”, for which the binding signal was 8600 fluorescence intensity (a.u.).

“GGAAACTGTCTATCCATTTTGTCGGGTGATTTCTCTCTAGCGGAGTCACCTAGTGCAG”: the binding signal is 8230 fluorescence intensity (a.u.).

Consider “CTACGTACTGTTTAACTTATATATGTCATTTCATATGGTTCGGAGTCACCTAGTGCAG”, for which the binding signal is 9440 fluorescence intensity (a.u.).

For the sequence “GCGGCAATGTCGGAGGTGTTTGTTTGGCTCGGTTTCGAAACGGAGTCACCTAGTGCAG”, the binding signal was 8230 fluorescence intensity (a.u.).

Take “GGCCGCCTGCAAATTTCGTTCCGTCTGCCACGTCACTTTCCGGAGTCACCTAGTGCAG”: the binding signal was 9290 fluorescence intensity (a.u.).

For the sequence “CCGCCGTCACCGTGCTCTTCTCGCTGCCGGTGGCGTACCCCGGAGTCACCTAGTGCAG”, the binding signal is 8430 fluorescence intensity (a.u.).

Consider “TTTATTTTCACCACCCTAGGATTGACACTTCACATTTATTCGGAGTCACCTAGTGCAG”, for which the binding signal is 8460 fluorescence intensity (a.u.).

Take “CCACTTTGTCATTTTGGCCATTTTGTGCATTTTCGAAATCCGGAGTCACCTAGTGCAG”: the binding signal was 13200 fluorescence intensity (a.u.).

As for “GCTAGTATATCTCTCGAGTTTGTCCCCACTCCCCAGCCATCGGAGTCACCTAGTGCAG”, the binding signal was 8150 fluorescence intensity (a.u.).

Regarding “TAGATTCGTACAACCTCATATTTTCGTTTATGTTTATGCTCGGAGTCACCTAGTGCAG”, the binding signal was 8690 fluorescence intensity (a.u.).

As to “CTGATAATGCTTTTTCGTCAAATTGCAAGTACATCCAACCCGGAGTCACCTAGTGCAG”, the binding signal is 11500 fluorescence intensity (a.u.).

Regarding “AACCACGTATGCGCCACGTCATCCAAAACCGCCTTCAAAACGGAGTCACCTAGTGCAG”, the binding signal is 8990 fluorescence intensity (a.u.).

With “CATCTCGCCCTCGCCCTCGCCTCGCCTCGTACCATCCGACCGGAGTCACCTAGTGCAG”, the binding signal was 8970 fluorescence intensity (a.u.).

Turning to “GCCATTTGTGCGCCGTCGTCCTCGGTCCTCTCAACACCGCCGGAGTCACCTAGTGCAG”, the binding signal is 8490 fluorescence intensity (a.u.).

Turning to “CTACTTTAGCACTAGTTACTTTCTATCACTATTGTATTTTCGGAGTCACCTAGTGCAG”, the binding signal was 10800 fluorescence intensity (a.u.).

For “TCGCATCACCCGTCTCCCTGGTCGTACATCGGGTGGATATCGGAGTCACCTAGTGCAG”, the binding signal is 8940 fluorescence intensity (a.u.).

Turning to “TTTTTACTGCACAACTAATGCTCGATGTCCAAATATACTTCGGAGTCACCTAGTGCAG”, the binding signal was 8040 fluorescence intensity (a.u.).

As for “CACATCTATAAGGTAGTACTAGTATTGTTTTCTCGCTGTCCGGAGTCACCTAGTGCAG”, the binding signal was 9120 fluorescence intensity (a.u.).

On to “CTTTCGCGTTTTCCTTGGGTTTGACAATGGGCTACATTGCCGGAGTCACCTAGTGCAG”, for which the binding signal is 9400 fluorescence intensity (a.u.).

Turning to “GCACCGCTGTACCAGTTTCACCTGGGGCACTACGAACAATCGGAGTCACCTAGTGCAG”, the binding signal is 8400 fluorescence intensity (a.u.).

For “AATACGAGCACCCGAACATGAACCCGGCTCATTGAACTCACGGAGTCACCTAGTGCAG”, the binding signal is 8120 fluorescence intensity (a.u.).

Turning to “AGAGATGATGAGAGAGAAGGATATAAACGGCTTATTTTTGCGGAGTCACCTAGTGCAG”, the binding signal is 8310 fluorescence intensity (a.u.).

For “AGAATCTCCTCTTATCTCTTCGCGCTTTCCCTCGCGACGCCGGAGTCACCTAGTGCAG”, the binding signal is 8320 fluorescence intensity (a.u.).

In the case of “TGCAATTCGTACTTTTTCCTACAATTAAACAGCTACATGTCGGAGTCACCTAGTGCAG”, the binding signal is 9500 fluorescence intensity (a.u.).

Regarding “AAGTTACTTTTATTTTTTTCTAGTCAAACTACTTAGACTTCGGAGTCACCTAGTGCAG”, the binding signal was 8740 fluorescence intensity (a.u.).

Take “CACTTCTCTTCCCGCCTCATATGCAGCTGGCCCGCATTAACGGAGTCACCTAGTGCAG”: the binding signal was 11200 fluorescence intensity (a.u.).

Turning to “TTCACTTTGGACCACATACCACCCATCTCTCTTCTCGAGCCGGAGTCACCTAGTGCAG”, the binding signal was 8640 fluorescence intensity (a.u.).

“AACTTGATATCAATCTTGTTCTGGTTTTGGATTTGAATTTCGGAGTCACCTAGTGCAG”: the binding signal was 8230 fluorescence intensity (a.u.).

Turning to “AACTTTTTTCAGTCCTAGAATTTCCCGAAATTTCGCTTCTCGGAGTCACCTAGTGCAG”, the binding signal was 10000 fluorescence intensity (a.u.).

Regarding “TATACCCCGTGCCGCCGACGTACGGCGCCGCCATGCCTCTCGGAGTCACCTAGTGCAG”, the binding signal was 9570 fluorescence intensity (a.u.).

Consider “GATAGAGATATCCTGCCTTCTGTCCTACCATCTTTCCATCCGGAGTCACCTAGTGCAG”, for which the binding signal is 9240 fluorescence intensity (a.u.).

In the case of “ATGAAATGTTTGTCATTTCTGGTGGGGCTGTTAGTTAATTCGGAGTCACCTAGTGCAG”, the binding signal was 9970 fluorescence intensity (a.u.).

“ATATACCAGTCTACTCGTTTTTCTTCAAGTTATTATACTACGGAGTCACCTAGTGCAG”: the binding signal is 8960 fluorescence intensity (a.u.).

Regarding “CTTCGGTCTCGAACCGCGGCGACTTCTCCTCTTTGGGTTTCGGAGTCACCTAGTGCAG”, the binding signal was 9010 fluorescence intensity (a.u.).

Take “TTCTTTTCCATGCGAGTTTTTACCTGGTCGCGCTTGGTCGCGGAGTCACCTAGTGCAG”: the binding signal was 8710 fluorescence intensity (a.u.).

As for “TCTCTCTCTCTCTCTCTCTCTCTCTCTCTCTCTCTCTCTCCGGAGTCACCTAGTGCAG”, the binding signal was 8030 fluorescence intensity (a.u.).

As for “ACAACAACAATTTACTTAAACTTCTGCAGGCTACTATTTCCGGAGTCACCTAGTGCAG”, the binding signal is 8360 fluorescence intensity (a.u.).

Turning to “GGCTACCGCTCCGTCGACTTCCTCCCCTACGCGTCCCACGCGGAGTCACCTAGTGCAG”, the binding signal was 8030 fluorescence intensity (a.u.).

With “GAGGGGCATTGGTCGGTTGGTTGAATCTTGAATGGTGAGACGGAGTCACCTAGTGCAG”, the binding signal is 16000 fluorescence intensity (a.u.).

Take “ATCCGAGTAATCGGGTATGATGCGCAGGGGTGGAGGGGATCGGAGTCACCTAGTGCAG”: the binding signal is 9440 fluorescence intensity (a.u.).

On to “TCACATATTTTGCAGTGTCCTCGGGCAGTTTCACGTTTTCCGGAGTCACCTAGTGCAG”, for which the binding signal is 11700 fluorescence intensity (a.u.).

For the sequence “ATGCATTTTCTATTTCTTCTCACCCTCTTGCATTGACCCTCGGAGTCACCTAGTGCAG”, the binding signal is 8370 fluorescence intensity (a.u.).
